The values that follow come from the supplement of paper PMC11732987, “Enantioselective OTUD7B fragment discovery through chemoproteomics screening and high-throughput optimisation” (Communications Chemistry, 2025).

Amino acid sequences for entries named in this document (tags omitted). A change or cut given only in a name is not applied to a line headed by its entry. Residues count along the entry.
UniProt Q70CQ2: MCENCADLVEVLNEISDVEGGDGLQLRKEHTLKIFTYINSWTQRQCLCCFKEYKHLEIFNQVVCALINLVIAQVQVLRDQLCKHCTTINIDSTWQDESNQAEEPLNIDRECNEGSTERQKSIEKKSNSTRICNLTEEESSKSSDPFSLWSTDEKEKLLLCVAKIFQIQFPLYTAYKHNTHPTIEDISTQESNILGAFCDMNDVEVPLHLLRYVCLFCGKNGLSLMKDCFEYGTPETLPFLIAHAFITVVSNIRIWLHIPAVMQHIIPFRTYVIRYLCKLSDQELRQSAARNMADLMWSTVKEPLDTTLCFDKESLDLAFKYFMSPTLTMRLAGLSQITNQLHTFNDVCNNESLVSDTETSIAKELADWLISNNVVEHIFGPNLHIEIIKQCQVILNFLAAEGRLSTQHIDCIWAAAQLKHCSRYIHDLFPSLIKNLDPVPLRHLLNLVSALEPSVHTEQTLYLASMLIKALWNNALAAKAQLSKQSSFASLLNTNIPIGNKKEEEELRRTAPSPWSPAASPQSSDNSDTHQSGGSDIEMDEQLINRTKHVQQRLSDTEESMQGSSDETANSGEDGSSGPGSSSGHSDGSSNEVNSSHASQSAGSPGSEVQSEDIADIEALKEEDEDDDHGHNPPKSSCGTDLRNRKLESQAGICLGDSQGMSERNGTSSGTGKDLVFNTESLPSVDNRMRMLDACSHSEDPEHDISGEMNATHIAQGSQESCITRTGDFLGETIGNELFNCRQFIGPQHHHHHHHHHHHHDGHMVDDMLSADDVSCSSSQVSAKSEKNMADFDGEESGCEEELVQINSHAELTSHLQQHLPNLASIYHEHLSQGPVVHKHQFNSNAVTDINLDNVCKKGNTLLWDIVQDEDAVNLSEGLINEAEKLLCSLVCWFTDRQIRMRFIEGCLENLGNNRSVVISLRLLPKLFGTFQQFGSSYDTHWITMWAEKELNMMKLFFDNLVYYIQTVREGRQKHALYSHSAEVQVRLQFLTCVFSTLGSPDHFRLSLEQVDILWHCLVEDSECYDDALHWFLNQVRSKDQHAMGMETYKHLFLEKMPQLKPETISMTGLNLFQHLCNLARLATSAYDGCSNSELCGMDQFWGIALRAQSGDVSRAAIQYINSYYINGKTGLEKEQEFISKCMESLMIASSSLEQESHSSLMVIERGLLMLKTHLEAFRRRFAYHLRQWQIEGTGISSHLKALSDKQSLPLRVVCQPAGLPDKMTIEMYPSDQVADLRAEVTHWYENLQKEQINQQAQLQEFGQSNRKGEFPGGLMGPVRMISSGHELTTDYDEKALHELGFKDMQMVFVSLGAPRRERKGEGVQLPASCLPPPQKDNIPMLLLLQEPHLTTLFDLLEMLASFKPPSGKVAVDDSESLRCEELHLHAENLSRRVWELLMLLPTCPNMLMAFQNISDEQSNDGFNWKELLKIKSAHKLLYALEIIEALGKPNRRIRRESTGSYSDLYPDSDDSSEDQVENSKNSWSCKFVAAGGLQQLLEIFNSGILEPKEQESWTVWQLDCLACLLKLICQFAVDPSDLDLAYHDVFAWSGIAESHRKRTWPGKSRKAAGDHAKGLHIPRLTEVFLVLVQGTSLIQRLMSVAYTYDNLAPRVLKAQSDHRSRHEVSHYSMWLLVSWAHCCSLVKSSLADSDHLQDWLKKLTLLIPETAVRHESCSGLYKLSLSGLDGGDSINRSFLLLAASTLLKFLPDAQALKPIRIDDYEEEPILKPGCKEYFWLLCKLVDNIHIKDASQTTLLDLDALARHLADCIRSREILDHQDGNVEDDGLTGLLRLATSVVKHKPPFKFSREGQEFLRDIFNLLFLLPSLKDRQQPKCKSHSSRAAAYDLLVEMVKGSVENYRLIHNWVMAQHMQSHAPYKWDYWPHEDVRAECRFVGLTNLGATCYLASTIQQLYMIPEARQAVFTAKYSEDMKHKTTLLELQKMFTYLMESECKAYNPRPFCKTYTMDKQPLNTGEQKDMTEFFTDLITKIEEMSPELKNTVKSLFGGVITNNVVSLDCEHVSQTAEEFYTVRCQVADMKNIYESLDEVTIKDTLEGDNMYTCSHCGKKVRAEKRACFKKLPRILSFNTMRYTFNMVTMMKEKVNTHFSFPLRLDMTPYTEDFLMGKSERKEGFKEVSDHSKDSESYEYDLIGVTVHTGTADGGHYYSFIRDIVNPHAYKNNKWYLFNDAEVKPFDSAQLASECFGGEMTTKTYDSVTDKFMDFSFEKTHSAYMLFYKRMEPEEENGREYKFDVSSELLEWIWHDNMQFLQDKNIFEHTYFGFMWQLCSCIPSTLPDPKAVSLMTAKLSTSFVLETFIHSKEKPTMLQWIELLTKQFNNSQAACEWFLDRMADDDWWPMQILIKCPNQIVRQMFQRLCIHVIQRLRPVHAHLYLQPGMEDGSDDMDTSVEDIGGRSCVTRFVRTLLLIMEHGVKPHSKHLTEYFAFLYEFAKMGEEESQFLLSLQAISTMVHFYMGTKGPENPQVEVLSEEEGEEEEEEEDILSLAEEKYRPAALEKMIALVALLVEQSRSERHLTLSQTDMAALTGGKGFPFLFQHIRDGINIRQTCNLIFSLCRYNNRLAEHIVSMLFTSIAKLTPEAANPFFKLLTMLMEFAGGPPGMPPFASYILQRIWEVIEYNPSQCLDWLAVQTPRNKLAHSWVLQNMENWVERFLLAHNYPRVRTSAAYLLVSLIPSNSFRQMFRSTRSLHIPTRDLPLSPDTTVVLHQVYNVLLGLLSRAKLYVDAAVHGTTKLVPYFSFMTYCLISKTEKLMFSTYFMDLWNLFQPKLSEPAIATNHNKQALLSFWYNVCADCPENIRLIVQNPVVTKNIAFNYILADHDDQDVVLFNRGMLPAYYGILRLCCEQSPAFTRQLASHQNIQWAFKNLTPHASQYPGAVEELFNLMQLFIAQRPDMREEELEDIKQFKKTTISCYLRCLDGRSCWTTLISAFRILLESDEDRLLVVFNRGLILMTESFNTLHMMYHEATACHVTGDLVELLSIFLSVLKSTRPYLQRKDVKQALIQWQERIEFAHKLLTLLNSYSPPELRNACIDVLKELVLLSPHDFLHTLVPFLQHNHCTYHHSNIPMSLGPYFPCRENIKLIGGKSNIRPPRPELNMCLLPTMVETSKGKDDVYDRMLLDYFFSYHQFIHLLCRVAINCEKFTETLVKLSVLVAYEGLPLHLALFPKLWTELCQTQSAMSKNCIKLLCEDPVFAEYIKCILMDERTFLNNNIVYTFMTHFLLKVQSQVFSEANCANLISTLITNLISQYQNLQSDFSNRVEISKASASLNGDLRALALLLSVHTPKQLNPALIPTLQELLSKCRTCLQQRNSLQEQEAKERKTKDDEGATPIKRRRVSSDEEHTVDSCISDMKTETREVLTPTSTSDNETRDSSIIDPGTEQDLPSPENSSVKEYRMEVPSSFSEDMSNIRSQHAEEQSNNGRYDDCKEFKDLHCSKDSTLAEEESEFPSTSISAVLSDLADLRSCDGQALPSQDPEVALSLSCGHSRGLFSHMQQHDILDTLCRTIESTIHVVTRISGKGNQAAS
UniProt Q8NB14, 545-568: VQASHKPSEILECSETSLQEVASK
UniProt O14795: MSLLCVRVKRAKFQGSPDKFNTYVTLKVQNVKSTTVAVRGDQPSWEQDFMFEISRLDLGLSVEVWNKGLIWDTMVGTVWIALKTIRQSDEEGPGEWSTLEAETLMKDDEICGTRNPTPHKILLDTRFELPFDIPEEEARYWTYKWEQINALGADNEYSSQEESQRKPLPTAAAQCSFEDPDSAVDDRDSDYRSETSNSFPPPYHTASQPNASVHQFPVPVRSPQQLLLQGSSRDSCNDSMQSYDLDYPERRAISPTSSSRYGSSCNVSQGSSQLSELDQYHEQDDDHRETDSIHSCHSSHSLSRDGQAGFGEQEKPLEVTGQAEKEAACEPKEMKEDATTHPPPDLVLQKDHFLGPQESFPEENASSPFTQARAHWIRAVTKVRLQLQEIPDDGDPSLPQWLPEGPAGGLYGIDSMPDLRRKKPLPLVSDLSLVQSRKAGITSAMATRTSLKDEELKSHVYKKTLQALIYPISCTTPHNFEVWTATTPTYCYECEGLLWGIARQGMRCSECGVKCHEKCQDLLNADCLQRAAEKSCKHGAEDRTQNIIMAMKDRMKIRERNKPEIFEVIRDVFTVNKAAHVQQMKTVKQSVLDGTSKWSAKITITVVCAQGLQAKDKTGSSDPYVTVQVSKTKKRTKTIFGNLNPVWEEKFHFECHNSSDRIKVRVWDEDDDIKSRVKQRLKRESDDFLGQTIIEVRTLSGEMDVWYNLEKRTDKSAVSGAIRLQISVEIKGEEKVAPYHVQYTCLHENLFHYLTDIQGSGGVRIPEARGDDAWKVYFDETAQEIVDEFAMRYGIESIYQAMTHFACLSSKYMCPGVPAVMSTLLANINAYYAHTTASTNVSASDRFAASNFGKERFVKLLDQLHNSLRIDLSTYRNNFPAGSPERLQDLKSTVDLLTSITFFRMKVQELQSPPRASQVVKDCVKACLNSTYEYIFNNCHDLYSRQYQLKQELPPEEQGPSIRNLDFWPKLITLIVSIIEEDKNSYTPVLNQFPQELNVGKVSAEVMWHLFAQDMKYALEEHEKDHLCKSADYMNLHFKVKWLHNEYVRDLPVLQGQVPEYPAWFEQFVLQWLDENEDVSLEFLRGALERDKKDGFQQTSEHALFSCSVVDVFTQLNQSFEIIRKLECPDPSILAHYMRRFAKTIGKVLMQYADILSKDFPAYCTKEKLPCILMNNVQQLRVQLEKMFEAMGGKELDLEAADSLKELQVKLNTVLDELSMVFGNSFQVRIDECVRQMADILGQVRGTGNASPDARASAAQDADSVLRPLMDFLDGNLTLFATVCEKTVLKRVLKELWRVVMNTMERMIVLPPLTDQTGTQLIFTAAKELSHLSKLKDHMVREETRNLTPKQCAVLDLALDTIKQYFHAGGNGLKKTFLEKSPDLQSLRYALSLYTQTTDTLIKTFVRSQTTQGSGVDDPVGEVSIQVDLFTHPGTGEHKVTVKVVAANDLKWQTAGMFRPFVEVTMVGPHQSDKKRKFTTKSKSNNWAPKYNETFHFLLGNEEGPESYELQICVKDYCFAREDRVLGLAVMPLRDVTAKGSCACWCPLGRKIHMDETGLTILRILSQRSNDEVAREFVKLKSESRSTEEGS
UniProt P31930: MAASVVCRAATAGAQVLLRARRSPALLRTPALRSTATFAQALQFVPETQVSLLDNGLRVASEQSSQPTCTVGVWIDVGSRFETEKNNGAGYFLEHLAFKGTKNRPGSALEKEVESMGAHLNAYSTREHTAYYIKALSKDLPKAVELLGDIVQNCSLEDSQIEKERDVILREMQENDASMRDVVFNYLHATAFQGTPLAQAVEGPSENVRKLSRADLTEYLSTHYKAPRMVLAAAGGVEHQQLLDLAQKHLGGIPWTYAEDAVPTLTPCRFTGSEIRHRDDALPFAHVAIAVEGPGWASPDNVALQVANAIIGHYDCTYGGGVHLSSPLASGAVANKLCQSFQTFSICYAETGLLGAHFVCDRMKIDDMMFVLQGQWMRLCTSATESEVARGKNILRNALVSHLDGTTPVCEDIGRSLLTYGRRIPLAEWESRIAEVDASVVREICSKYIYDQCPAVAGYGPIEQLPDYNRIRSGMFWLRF
UniProt O94874, 123-144: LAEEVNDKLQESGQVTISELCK
UniProt Q96RL1, 430-460: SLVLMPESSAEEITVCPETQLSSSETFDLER
UniProt Q9H267: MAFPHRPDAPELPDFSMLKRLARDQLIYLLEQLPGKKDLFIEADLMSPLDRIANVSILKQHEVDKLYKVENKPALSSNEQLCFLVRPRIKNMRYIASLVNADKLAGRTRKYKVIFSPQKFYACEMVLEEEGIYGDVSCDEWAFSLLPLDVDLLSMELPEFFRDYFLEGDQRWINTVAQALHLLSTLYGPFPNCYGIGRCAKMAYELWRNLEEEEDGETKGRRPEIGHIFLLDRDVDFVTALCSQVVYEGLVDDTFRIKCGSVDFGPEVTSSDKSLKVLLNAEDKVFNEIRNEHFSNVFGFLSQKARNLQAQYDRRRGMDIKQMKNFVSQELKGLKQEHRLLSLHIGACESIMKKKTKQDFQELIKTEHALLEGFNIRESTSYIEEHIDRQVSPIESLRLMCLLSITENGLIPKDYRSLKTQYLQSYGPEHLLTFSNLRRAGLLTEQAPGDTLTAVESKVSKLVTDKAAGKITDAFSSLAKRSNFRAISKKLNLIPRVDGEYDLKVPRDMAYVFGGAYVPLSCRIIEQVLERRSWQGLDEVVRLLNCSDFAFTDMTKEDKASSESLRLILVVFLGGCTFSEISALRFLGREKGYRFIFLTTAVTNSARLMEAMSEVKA

This is one part of the list. The data scatter; read single values as rough.

Compound in one experiment: ClCC(=O)N[C@@H]1CCCc2ccccc12
Kind of experiment: log2 mean competition ratio of IA-DTB cysteine labelling (DMSO/compound) (log2 ratio); higher = stronger cysteine engagement by compound. As to conditions: 50 µM; treatment time: 4 h; cell line lysate: HEK293T. The protocol: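 IA-DTB competitive cysteine chemoproteomics in HEK293T RIPA lysate. Lysates were treated with compound 29 or 30 at 50 or 200 µM for 4 h, then IA-DTB (500 µM, 1 h), trypsin-digested, NeutrAvidin-enriched and analysed by diaPASEF. Competition ratio = intensity DMSO / intensity compound (n=4 treated, n=64 DMSO); binding: mean log2 CR ≥ 1 and p ≤ 0.05 plus QC filters. Target is the cysteine site.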
As to VCP C522 (UniProt P55072), the “log2 mean competition ratio” value is 0.636.

Consider UTRN C2185 (UniProt P46939), for which the “log2 mean competition ratio” value was found to be 0.0598.

As for USP34 C741 (UniProt Q70CQ2), the “log2 mean competition ratio” value came out at 0.0326.

Take UPF2 C1107 (UniProt Q9HAU5): the “log2 mean competition ratio” value came to 0.0845.

As to USP38 C557 (UniProt Q8NB14), the “log2 mean competition ratio” value was -0.356.

As to UNC45A C488 (UniProt Q9H3U1), the “log2 mean competition ratio” value is -0.0887.

With UNC13B C1028 (UniProt O14795), the “log2 mean competition ratio” value stood at 0.00499.

For UQCRC1 C380 (UniProt P31930), the “log2 mean competition ratio” value stood at 0.0617.

With VARS1 C41, the “log2 mean competition ratio” value amounted to 0.00665.

Regarding UFL1 C143 (UniProt O94874), the “log2 mean competition ratio” value is -0.312.

With UNC45B C207, the “log2 mean competition ratio” value was 0.259.

Regarding USP37 C538 (UniProt Q86T82), the “log2 mean competition ratio” value was 0.208.

In the case of UIMC1 C601 (UniProt Q96RL1), the “log2 mean competition ratio” value is -0.0662.

For VPS33B C546 (UniProt Q9H267), the “log2 mean competition ratio” value is 0.312.

Consider UIMC1 C445 (UniProt Q96RL1), for which the “log2 mean competition ratio” value came to 0.148.

As for USP34 C638 (UniProt Q70CQ2), the “log2 mean competition ratio” value is -0.152.

Regarding VARS2 C713, the “log2 mean competition ratio” value is -0.23.

Take USP36 C302 (UniProt Q9P275): the “log2 mean competition ratio” value is -0.192.

ULBP3 C67: the “log2 mean competition ratio” value worked out at 0.04.

In the case of USP9X C540 (UniProt Q93008), the “log2 mean competition ratio” value was found to be 0.00968.

The same experiment, now with this note: 200 µM; treatment time: 4 h; cell line lysate: HEK293T.
VCP C522 (UniProt P55072): the “log2 mean competition ratio” value was -0.0182.

On to UTRN C2185 (UniProt P46939), for which the “log2 mean competition ratio” value was -0.359.

USP34 C741 (UniProt Q70CQ2): the “log2 mean competition ratio” value worked out at 0.554.

As for UPF2 C1107 (UniProt Q9HAU5), the “log2 mean competition ratio” value is -0.245.

As for USP38 C557 (UniProt Q8NB14), the “log2 mean competition ratio” value stood at 0.0621.

As for UNC45A C488 (UniProt Q9H3U1), the “log2 mean competition ratio” value was determined as 0.151.

Turning to UNC13B C1028 (UniProt O14795), the “log2 mean competition ratio” value was -0.215.

Take UQCRC1 C380 (UniProt P31930): the “log2 mean competition ratio” value was -0.136.

As for VARS1 C41, the “log2 mean competition ratio” value was -0.12.

As to UFL1 C143 (UniProt O94874), the “log2 mean competition ratio” value is 0.285.

As for UNC45B C207, the “log2 mean competition ratio” value was -0.0373.

As to USP37 C538 (UniProt Q86T82), the “log2 mean competition ratio” value was -0.0552.

Regarding UIMC1 C601 (UniProt Q96RL1), the “log2 mean competition ratio” value is 0.12.

As to VPS33B C546 (UniProt Q9H267), the “log2 mean competition ratio” value was -0.079.

In the case of UIMC1 C445 (UniProt Q96RL1), the “log2 mean competition ratio” value was -0.156.

For the target USP34 C638 (UniProt Q70CQ2), the “log2 mean competition ratio” value was determined as 0.0977.

Turning to VARS2 C713, the “log2 mean competition ratio” value was -0.0119.

For the target USP36 C302 (UniProt Q9P275), the “log2 mean competition ratio” value came out at 0.111.

On to ULBP3 C67, for which the “log2 mean competition ratio” value is -0.0802.

As to USP9X C540 (UniProt Q93008), the “log2 mean competition ratio” value was -0.108.
